Laboratory results reported in PMC10163288.
The list shows a part of the results.

B1: il2ra_site1_2b5i_normal_mot_58506191a346798b4b085b1ef2d4ae87_0001_000000013_0001_36_50_H_._HHH_b1_04463_0001_0000300018_0000001_0_af2pred_dldesign_0_af2pred (protein)
chain: SSSSDEEKRKELEELIKRIADKLKSPGLEKFLRRALDIALAQGDDLDDIKKQLLELEKKLSSSSS
B2: il2ra_site2_2erj_sap_26_mot_3b06bd03f1c6bceadc68eab912867b79_0001_000000296_0001_36_50_H_._HHH_b2_01466_af2_0001_0000500007_0000001_0_0001 (protein)
chain: SSSSSDEEEIEELIEQAKRIEDPEERFKVLSRAFELAYKLGNIELAAEIAELALEAEEEGSSSSS
B3: il2ra_site2_3nfp_sap_12_mot_HHH_b2_02049_000000004_0001_42_55_H_._HHH_b1_02393_0001_0000200035_0000001_0_0001 (protein)
chain: SSSDETRERVEELLKEVEELIKEGNEEEAERVLLEAALVAAEGRDREAFMLVNELLARLARSSSS
B4: il2ra_site1_3nfp_normal_mot_46d73865503fbedcaf0f3a45445d594c_0001_af2_000000151_0001_1_12_H_._HEEHE_0493_0001_0000200015_0000001_0 (protein)
chain: NDERVVARLIELAAKSAGVPSVEVEVENGRLRVEFEGNDEAVRQAIEAAKRLVEQFNVEIEIEVS
B5: il2ra_site1_1z92_sap_12_mot_f199c3973e161bc1da28d4790bc84bcd_0001_1_000000051_0001_1_14_H_._HHH_b1_04987_af2_0001_0000100004_0000001_0_0001_af2pred_0001_af2pred … (protein)
chain: SEEQRELLEKILGDPELAKVVLRDFERAEENSGDPENALKAVLLVLEKSGDVSPEQLKLIEEILR
B6: il2ra_site1_2b5i_sap_10_mot_HHH_b1_05947_000000126_0001_42_56_H_._HHH_b1_07611_0001_0000300016_0000001_0_0001_af2pred_0001_af2pred (protein)
chain: SSSSDDQEITELYREASELFRNGNPEEAKKVLEEALKLAKEAGDEHIFEQLEQLRELIRGSSSSS
B7: il2ra_site2_3nfp_sap_29_mot_3824cfb560b92ee870597236e80092b0_0001_000000220_0001_16_33_H_._a446f3f13a1e079202495c9b702b595a_0001_0001_0000300013_0000001_0_0001_ … (protein)
chain: SSSSSSEEEERVRELLEEAKEIEDEREARIVLLLALAIALEAGDEELEREVEKVARELFGSSSSS
B8: il2ra_site2_3nfp_normal_mot_HHH_b1_00660_af2_000000090_0001_40_57_H_._HHH_b2_04221_0001_0000300017_0000001_0_af2pred_0001_af2pred (protein)
chain: SSSSSDEEEEEVEELLEEAKKIDDPEEREEVLKRAATVASENRDFELYALVSRVFEELASSSSSS
B9: il2ra_site2_2erj_sap_17_mot_678ce523d3521e26f84bf18760a59296_0001_000000113_0001_1_12_H_._HHH_b1_07656_af2_0001_0000100001_0000001_0_0001 (protein)
chain: SSSSSEELHRIYELANRILHAISRNNPEEVEELIEEAEELIREANNEAAEKILETLKRLFNSSSS
B10: il2ra_site1_3nfp_normal_mot_HHH_b1_06045_af2_000000189_0001_3_17_H_._HHH_b1_08576_0001_0000400025_0000001_0_af2pred_0001_af2pred_1 (protein)
chain: SSSSSDLEERVEELLKEARELYERGNPLEAARVLDEAFKIAAEADNPELTEEIYRLMQEVSSSSS
B11: il2ra_site2_3nfp_sap_14_mot_HHH_b1_03818_000000217_0001_1_20_H_._HHH_b2_00677_af2_0001_0000400015_0000001_0_0001 (protein)
chain: SSSSSDEVEELLEEVERLLREGNEEEAERVILRAAALAAEANDFEAFAKVSELRERIAGSSSSSS
B12: il2ra_site2_2erj_normal_mot_HHH_b1_03609_af2_000000077_0001_42_55_H_._HHH_b1_06056_af2_0002_0000200003_0000001_0 (protein)
chain: SSSSSEEVEELLEEARELSKRNPEEAEKVLRRASELAFRANNFELWALVAELLRAIAELEGSSSS
B13: il2ra_site1_3nfp_normal_mot_eb5a5eebac1e5153f932cc6c3f4b2787_0001_af2_000000065_0001_18_33_H_._31bff7180b20e3ed47766ceefd9934be_0001_af2_0001_0000100001_0000001 … (protein)
chain: DEEEELAELIRQAVEKNDPELLERVAQELLEKLGDPKEASRLFEELLEKAGLSPRERQLALELSV
B14: il2ra_site1_3nfp_normal_mot_ems_3hM_3354_af2_000000165_0001_44_63_H_._HEEHE_1486_af2_0001_0000100002_0000001_0 (protein)
chain: DLEEAVEEAAKKLAEVVGVPSWEVEVENGTVHVELEGTDHQAKAAAKIIEFAAKAFGVPVEVEVR
B15: il2ra_site1_2b5i_normal_mot_HHH_b1_01495_af2_000000272_0001_42_56_H_._HHH_b2_08205_af2_0001_0000300011_0000001_1_af2pred_dldesign_0_af2pred (protein)
chain: SSSSSSSLFDETERLFNEASKIKDKEERKKVLEKALEVAKKANDEVAVADIEYFLSRVKSSSSSS
B16: il2ra_site2_2erj_normal_mot_HHH_b2_02303_000000050_0001_43_56_H_._HHH_b2_07721_af2_0001_0000100009_0000001_0 (protein)
chain: SSSSNELLRELYELLRELAQLVYEGDEERAKELIEEIEELAKELNITVAEEVLRTLQRHLNSSSS
B17: il2ra_site1_1z92_sap_17_mot_30aa582283ecb64a35315be28fff3e94_0001_000000110_0001_35_49_H_._210159fdb1b1f1ad465d550914d6d852_0001_0001_0000300032_0000001_0_0001 (protein)
chain: SSSSSSEEEAVEYHKRLLESALRLGNEELLKMLLRAAEMLAERLNDEELRELVEEIEEKYSSSSS
B18: il2ra_site1_3nfp_normal_mot_HHH_b1_03753_af2_000000088_0001_41_54_H_._894fcaf535bbcaf6280540f02ced91cd_0001_0001_0000300013_0000001_0_af2pred_0001_af2pred_1_swa … (protein)
chain: SLEEEVERLLREAGAPPHAIKIIKQLLEAVKRGNPSARRLLEINIRAARNLGNEAAVEALELALK

molecular target: il2ra, P01589; test: yeast display titration

Apparent Kd, inactive:
B1 no binding seen, B2 no binding seen, B3 no binding seen, B4 no binding seen, B5 no binding seen, B6 no binding seen, B7 no binding seen, B8 no binding seen, B9 no binding seen, B10 no binding seen, B11 no binding seen, B12 no binding seen, B13 no binding seen, B14 no binding seen, B15 no binding seen, B16 no binding seen, B17 no binding seen, B18 no binding seen
